PubChem BioAssay AID743121, NCATS – 2013
This is an unselected part of about 26,000 reagents tested. 167 of all reagents (0.63%) were called active. 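Calls are per gene from RSA p-values that are not deposited; an individual active-marked siRNA can sensitise only weakly.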 Entries without a mark were called inactive. Not all columns of the deposit are shown.

Aim: 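Knock-downs that sensitise breast cancer cells to camptothecin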 (primary screen)
Cell system: MDA-MB-231 cells, a human breast cancer line
Reagents: single siRNA against human genes, 20 nM siRNA (0.8 pmol per well)
Timing: 120 h (drug added 48 h after transfection, read 72 h later)
Challenge: camptothecin 20 nM (about EC30) for 72 h; vehicle 0.1% DMSO in parallel plates
Measured: 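CellTiter-Glo ATP signal, scaled to control siRNA as percent viability; sensitisation given as log2 of untreated divided by camptothecin-treated viability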
Reading the numbers: log2 vehicle/camptothecin viability: higher = stronger sensitisation to camptothecin; viability with camptothecin: higher = more viable cells
Call rule: 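Active genes have an RSA gene-level p-value below 0.001, computed from the ratios of their separate siRNAs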

no.	gene	PubChem SID	log2 vehicle/camptothecin viability	viability with camptothecin (% of control)
1	TULP1 (TUB like protein 1)	SID164392985	-0.171	96.8
2	TULP1 (TUB like protein 1)	SID164392986	-0.257	101
3	TULP1 (TUB like protein 1)	SID164392987	0.0618	78.6
4	TULP1 (TUB like protein 1)	SID164392988	-0.123	85
5	ADGRL3 (adhesion G protein-coupled receptor L3)	SID164447005	-0.379	69.1
6	ADGRL3 (adhesion G protein-coupled receptor L3)	SID164447006	-0.104	117
7	ADGRL3 (adhesion G protein-coupled receptor L3)	SID164447007	-0.307	88.3
8	ADGRL3 (adhesion G protein-coupled receptor L3)	SID164447011	0.318	71.2
9	ARHGAP26 (Rho GTPase activating protein 26)	SID164445558	0.115	101
10	ARHGAP26 (Rho GTPase activating protein 26)	SID164445559	-0.524	50.8
11	ARHGAP26 (Rho GTPase activating protein 26)	SID164445561	-0.196	104
12	ARHGAP26 (Rho GTPase activating protein 26)	SID164445564	-0.11	74
13	LRPAP1 (LDL receptor related protein associated protein 1)	SID164374192	-0.689	101
14	LRPAP1 (LDL receptor related protein associated protein 1)	SID164374195	-0.349	42
15	LRPAP1 (LDL receptor related protein associated protein 1)	SID164374198	-0.415	54.1
16	NCOA6 (nuclear receptor coactivator 6)	SID164445311	-0.175	62.9
17	NCOA6 (nuclear receptor coactivator 6)	SID164445312	-0.189	78
18	NCOA6 (nuclear receptor coactivator 6)	SID164445314	-0.447	40
19	NCOA6 (nuclear receptor coactivator 6)	SID164445316	-0.223	102
20	ADAP1 (ArfGAP with dual PH domains 1)	SID164415082	-0.0527	67.3
21	ADAP1 (ArfGAP with dual PH domains 1)	SID164415083	-0.297	85.2
22	ADAP1 (ArfGAP with dual PH domains 1)	SID164415084	0.241	35.8
23	ERAP1 (endoplasmic reticulum aminopeptidase 1)	SID164475326	-0.312	52.4
24	ERAP1 (endoplasmic reticulum aminopeptidase 1)	SID164475327	0.0121	61.6
25	ERAP1 (endoplasmic reticulum aminopeptidase 1)	SID164475328	-0.0361	68.4
26	ERAP1 (endoplasmic reticulum aminopeptidase 1)	SID164475334	1.16	26.9
27	GPR26 (G protein-coupled receptor 26)	SID164367380	-0.361	65.2
28	GPR26 (G protein-coupled receptor 26)	SID164367381	-0.186	73.1
29	GPR26 (G protein-coupled receptor 26)	SID164367382	0.657	42.4
30	GPR26 (G protein-coupled receptor 26)	SID164367383	0.202	87.9
31	HSF4 (heat shock transcription factor 4)	SID164370135	0.0251	10.6
32	HSF4 (heat shock transcription factor 4)	SID164370136	0.0224	87.7
33	HSF4 (heat shock transcription factor 4)	SID164370137	-0.112	52.9
34	HSF4 (heat shock transcription factor 4)	SID164370139	-0.107	30.4
35	RAB43 (RAB43, member RAS oncogene family)	SID164657416	-0.192	66.9
36	RAB43 (RAB43, member RAS oncogene family)	SID164657417	-0.215	120
37	RAB43 (RAB43, member RAS oncogene family)	SID164657418	-0.239	97.2
38	RAB43 (RAB43, member RAS oncogene family)	SID164657419	-0.262	67
39	FOXO1 (forkhead box O1)	SID164365051	0.0798	84.3
40	FOXO1 (forkhead box O1)	SID164365053	-0.0329	118
41	FOXO1 (forkhead box O1)	SID164365054	-0.419	80.7
42	FOXO1 (forkhead box O1)	SID164365055	0.0247	109
43	PYGL (glycogen phosphorylase L)	SID164384271	-0.543	99.2
44	PYGL (glycogen phosphorylase L)	SID164384272	-0.317	69
45	PYGL (glycogen phosphorylase L)	SID164384274	-0.442	70.5
46	PYGL (glycogen phosphorylase L)	SID164384275	-0.0485	87.8
47	ZNRF2 (zinc and ring finger 2)	SID164593370	0.159	49.4
48	ZNRF2 (zinc and ring finger 2)	SID164593372	1.48	29
49	ZNRF2 (zinc and ring finger 2)	SID164593374	-0.457	85.1
50	RAB3C (RAB3C, member RAS oncogene family)	SID164562702	0.0338	74.7
51	RAB3C (RAB3C, member RAS oncogene family)	SID164562704	-0.33	87.2
52	RAB3C (RAB3C, member RAS oncogene family)	SID164562705	-0.607	107
53	OR11H1 (olfactory receptor family 11 subfamily H member 1)	SID164689512	0.0483	33.2
54	OR11H1 (olfactory receptor family 11 subfamily H member 1)	SID164689514	-0.238	45.2
55	OR11H1 (olfactory receptor family 11 subfamily H member 1)	SID164689515	0.304	87.8
56	OR11H1 (olfactory receptor family 11 subfamily H member 1)	SID164689517	-0.0083	93.2
57	MEX3C (mex-3 RNA binding family member C)	SID164473345	-0.414	97.8
58	MEX3C (mex-3 RNA binding family member C)	SID164473346	-0.0724	99.4
59	MEX3C (mex-3 RNA binding family member C)	SID164473349	-0.059	92.5
60	MEX3C (mex-3 RNA binding family member C)	SID164473351	-0.11	109
61	WWTR1 (WW domain containing transcription regulator 1)	SID164457859	-0.314	98.3
62	WWTR1 (WW domain containing transcription regulator 1)	SID164457861	-0.584	97.6
63	WWTR1 (WW domain containing transcription regulator 1)	SID164457862	-0.116	53.1
64	AMELX (amelogenin X-linked)	SID164353195	-0.215	96.6
65	AMELX (amelogenin X-linked)	SID164353196	0.229	88.2
66	AMELX (amelogenin X-linked)	SID164353198	-0.437	94.9
67	AMELX (amelogenin X-linked)	SID164353199	-0.438	75.2
68	MAPK4 (mitogen-activated protein kinase 4)	SID164382724	-0.342	64.5
69	MAPK4 (mitogen-activated protein kinase 4)	SID164382727	-0.398	79
70	MAPK4 (mitogen-activated protein kinase 4)	SID164382730	-0.183	2.47
71	MAPK4 (mitogen-activated protein kinase 4)	SID164382731	-0.339	81.1
